Values of other authors in PMC10544575, “Inhibitory mechanism of vortioxetine on CYP450 enzymes in human and rat liver microsomes” (Frontiers in Pharmacology, 2023).

System: vortioxetine metabolism
Conditions: previous study; ref Xu et al., 2021; cited from earlier work

**Q.** For `CCCNCC(O)COc1ccccc1C(=O)CCc1ccccc1` (stereo not shown) [propafenone], which “effect on vortioxetine metabolism” value is on record?
**A.** inhibitory effect
